Source: the supplement of paper PMC8166895
Structures can show the parent of a compound that is named as a salt. The list shows a part of the results. Most values lie at the level of the controls, where differences are scatter.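 A single-replicate pilot screen of approved drugs and clinical or known-target compounds measured melting temperature via differential scanning fluorimetry. Top stabilizing hits raised the melting point by 2 °C or more; negative shifts indicate destabilization.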

The molecules below were run on SARS-CoV-2 main protease (Mpro, nsp5) (assay: thermal shift ΔTm of Mpro relative to plate average Tm; higher = stronger thermal stabilization of Mpro (binding)). Conditions: 10 µM; protein concentration 1 µM.

SMILES | thermal shift ΔTm of Mpro
Cc1cc(Nc2cc(CN3CCOCC3)c3nc(C)c(Cc4ccc(Cl)cc4F)n3n2)n[nH]1 | -0.304 °C
Brc1ccc(C2CN3CCSC3=N2)cc1 (single isomer, unassigned; (-)) [(-)-p-Bromotetramisole Oxalate] | -0.218 °C
CCOC(=O)N[C@@H]1CC[C@@H]2[C@@H](C1)C[C@H]1C(=O)O[C@H](C)[C@H]1[C@H]2/C=C/c1ccc(-c2cccc(F)c2)cn1 [Vorapaxar] | -0.135 °C
CCOC(=O)N[C@@H]1CC[C@@H]2[C@@H](C1)C[C@H]1C(=O)O[C@H](C)[C@H]1[C@H]2/C=C/c1ccc(-c2cccc(F)c2)cn1 [Vorapaxar sulfate] | -0.162 °C
Nc1nnc(-c2cccc(Cl)c2Cl)c(N)n1 [Lamotrigine] | -0.0606 °C
Nc1nc(=O)[nH]cc1F [Flucytosine] | 0.0593 °C
CCN1CCN(c2ccc(Nc3cc(N(C)C(=O)Nc4c(Cl)c(OC)cc(OC)c4Cl)ncn3)cc2)CC1 [Infigratinib] | -0.0222 °C
Oc1cc(O)cc(/C=C/c2ccc(O)c(O)c2)c1 [Piceatannol] | -0.375 °C
O=C(NC1CC1)c1cc(-c2cccs2)on1 [Isoxazole 9 (ISX-9)] | -0.0581 °C
CS(=O)(=O)c1ccc(NC(=O)c2cc(C#N)c(Sc3c(Cl)cncc3Cl)s2)cc1 [USP7/USP47 inhibitor] | 0.288 °C
CN1CCN(c2ccc(Nc3cc(-c4cccc(-n5ccc6cc(C7CC7)cc(F)c6c5=O)c4CO)cn(C)c3=O)nc2)CC1 | -0.0536 °C
CC(=O)O[C@]1(C(C)=O)CC[C@H]2[C@@H]3C=C(C)C4=CC(=O)CC[C@]4(C)[C@H]3CC[C@@]21C [Megestrol Acetate] | 0.154 °C
C=C1[C@H](CO)[C@@H](O)C[C@@H]1n1cnc2c(=O)[nH]c(N)nc21 [Entecavir Hydrate] | 0.202 °C
C=C1[C@H](CO)[C@@H](O)C[C@@H]1n1cnc2c(=O)[nH]c(N)nc21 [Entecavir] | -0.0641 °C
CN(C)C(=O)c1cc2cnc(Nc3ccc(N4CCNCC4)cn3)nc2n1C1CCCC1 | -0.157 °C
CCCOc1ccc(C=C2SC(=O)NC2=O)cc1 | 0.028 °C
O=c1cccc2n1C[C@@H]1CNC[C@H]2C1 [Cytisine] | -0.141 °C
CCCC(=O)Nc1cccc(NC(=O)c2ccccc2Br)c1 | 0.0537 °C
C#CC1(O)CC[C@H]2[C@@H]3CCC4=CC(=O)CC[C@@H]4[C@H]3CC[C@@]21CC (some centres not stated) [Norgestrel] | 0.152 °C
CO[C@H]1C[C@@H]2CC[C@@H](C)[C@@](O)(O2)C(=O)C(=O)N2CCCC[C@H]2C(=O)O[C@H]([C@H](C)C[C@@H]2CC[C@H](n3cnnn3)[C@H](OC)C2)CC(=O)[C@H](C)/C=C(\C)[C@@H](O)[C@@H](OC)C(=O)[C@H](C)C[C@H](C)/C=C/C=C/C=C/1C [Zotarolimus(ABT-578)] | -0.055 °C
CN(C)Cc1ccc(-c2cnn3c(-c4cccc(NC(=O)c5cccc(C(F)(F)F)c5)c4)ccnc23)cc1 | 0.381 °C

SMILES | thermal shift ΔTm of Mpro
O=C(O)c1ccc(O)c2ncccc12 | 0.155 °C
COc1cc2ncnc(Nc3ccc(O)c(Br)c3)c2cc1OC | 0.229 °C
O=c1[nH]c(=S)[nH]c2nc(-c3ccccc3)c(-c3ccccc3)nc12 [SCR7 pyrazine] | -0.0118 °C
COc1cc(-c2cc(-c3cccc(O)c3)cnc2N)cc(OC)c1OC | -0.261 °C
O=C1NC(=O)/C(=C\c2c[nH]c(=O)c(-c3ccc(N4CCNCC4)nc3)c2)S1 [Protein kinase inhibitors 1 hydrochlorid] | 0.206 °C
CC(C)(C)NCC(O)COc1cccc2c1CC(O)C(O)C2 (configuration not stated) [Nadolol] | 0.185 °C
CCN(CC)C(=O)c1ccc(C(=C2CCNCC2)c2ccccc2)cc1 | -0.0558 °C
Cc1ccc(S(=O)(=O)/C=C/C#N)cc1 | -0.416 °C
Nc1ccccc1NC(=O)c1ccc(CNc2nccc(-c3cccnc3)n2)cc1 [Mocetinostat (MGCD0103)] | -0.0694 °C
COc1cc(-c2cc(-c3ccc(N4CCNCC4)cc3)cnc2C)cc(OC)c1OC | -0.151 °C
Cn1nc(-c2ccc(C(F)(F)F)cc2)nc2c(=O)n(C)c(=O)nc1-2 [Walrycin B] | 0.0248 °C
O=[N+]([O-])O[C@H]1CO[C@H]2[C@@H]1OC[C@H]2O[N+](=O)[O-] [Isosorbide dinitrate] | 0.00365 °C
CC(C)(C)OC(=O)Nc1ccc(-c2cc(C(=O)NCCCCCCC(=O)NO)no2)cc1 | 0.556 °C
C=C1CC[C@@]2(O)[C@H]3Cc4ccc(O)c5c4[C@@]2(CCN3CC2CC2)[C@H]1O5 [Nalmefene hydrochloride] | 0.134 °C
CCOCCn1c(N2CCCN(C)CC2)nc2ccccc21 [Emedastine] | 0.0508 °C
CC[C@H](C)C(=O)O[C@H]1C[C@H](O)C=C2C=C[C@H](C)[C@H](CC[C@@H](O)C[C@@H](O)CC(=O)O)[C@H]21 [Pravastatin sodium] | 0.0146 °C
Cc1cccn2c(=O)c(-c3nnn[nH]3)cnc12 [Pemirolast potassium] | 0.124 °C
CC1=C(C(=O)O)N2C(=O)[C@@H](NC(=O)[C@H](N)c3ccccc3)[C@H]2SC1 [Cephalexin] | -0.0266 °C
Cc1nccn1CC1CCc2c(c3ccccc3n2C)C1=O (configuration not stated) [Ondansetron HCl] | 0.0935 °C
Cc1nccn1CC1CCc2c(c3ccccc3n2C)C1=O (configuration not stated) [Ondansetron hydrochloride] | -0.042 °C
CC(=O)NC[C@H]1CN(c2ccc(N3CCOCC3)c(F)c2)C(=O)O1 [Linezolid] | 0.198 °C

SMILES | thermal shift ΔTm of Mpro
CC(C)Cc1ccc([C@@H](C)C(=O)NS(C)(=O)=O)cc1 [Repertaxin] | -0.000229 °C
COc1ccc2c(c1)c(CC(=O)OCC(=O)O)c(C)n2C(=O)c1ccc(Cl)cc1 [Acemetacin] | -0.0651 °C
COc1cc2c(cc1Cc1cccc(Cl)c1F)c(=O)c(C(=O)O)cn2[C@H](CO)C(C)C [Elvitegravir (GS-9137, JTK-303)] | 0.128 °C
COc1ccc2cc3[n+](cc2c1OC)CCc1cc2c(cc1-3)OCO2 [Berberine HCl] | 0.00619 °C
OCC(S)CS (configuration not stated) [Dithiopropanol] | 0.0319 °C
CCC(C)NC(=O)/C=C/c1ccc(Cl)c(Cl)c1 (configuration not stated) [Lvguidingan] | 0.0285 °C
Cn1sc(=O)n(Cc2ccccc2)c1=O | -12.9 °C
O=C(CCCN1CCC2(CC1)C(=O)NCN2c1ccccc1)c1ccc(F)cc1 [Spiperone] | 0.0877 °C
O=C1Nc2ccc(I)cc2/C1=C/c1cc(Br)c(O)c(Br)c1 | 1.7 °C
COc1ccc(OC)c(C2C(C#N)=C(N)Oc3n[nH]c(-c4ccc5ccccc5c4)c32)c1 (configuration not stated) | -0.123 °C
O=C1N=C(O)NC1(c1ccccc1)c1ccccc1 [Phenytoin sodium] | 0.0409 °C
CC1(C)O[C@@H]2[C@@H](CO[C@@]3(COS(N)(=O)=O)OC(C)(C)O[C@@H]23)O1 [Topiramate] | 0.14 °C
CC[N+](CC)(CC(=O)Nc1c(C)cccc1C)Cc1ccccc1 [Denatonium benzoate] | 0.236 °C
COc1cc(NS(=O)(=O)c2ccc(N)cc2)nc(OC)n1 [Sulphadimethoxine] | 0.136 °C
c1ccc(CN(CCN(Cc2ccccn2)Cc2ccccn2)Cc2ccccn2)nc1 | -0.0795 °C
CCNc1nc(Nc2cc(F)c(C(=O)N3CCOCC3)cc2OC)ncc1C(F)(F)F | -0.223 °C
CCCCN1CCC(CNC(=O)c2c3n(c4ccccc24)CCCO3)CC1 [Piboserod] | 0.313 °C
O=C(c1cccc(-c2nc3ccccc3[nH]2)n1)N1CCN(C(=O)c2cccc(-c3nc4ccccc4[nH]3)n2)CC1 | 0.0615 °C
Cn1nnc(-c2ccc(-c3ccc(N4C[C@H](CO)OC4=O)cc3F)cn2)n1 [Torezolid] | 0.0298 °C
Cc1cccc(Nc2ccncc2S(=O)(=O)NC(=O)NC(C)C)c1 [Torasemide] | 0.0659 °C
Nc1cccc(-c2nc(N3CCOCC3)c3oc4ncccc4c3n2)c1 [PIK-inhibitors] | -0.00175 °C

Exported in CSV form: entries from further up
SMILES,thermal shift ΔTm of Mpro
CC(C)Cc1ccc([C@@H](C)C(=O)NS(C)(=O)=O)cc1 [Repertaxin],-0.000229 °C
COc1ccc2c(c1)c(CC(=O)OCC(=O)O)c(C)n2C(=O)c1ccc(Cl)cc1 [Acemetacin],-0.0651 °C
"COc1cc2c(cc1Cc1cccc(Cl)c1F)c(=O)c(C(=O)O)cn2[C@H](CO)C(C)C [Elvitegravir (GS-9137, JTK-303)]",0.128 °C

Next part

SMILES | thermal shift ΔTm of Mpro
Cc1ccc(Cl)cc1N(CC(=O)Nc1c(F)cccc1F)S(C)(=O)=O | -0.208 °C
O=C(c1ccc(F)cc1)N1CCC[C@H](c2nc(-c3ccc(F)cc3)no2)C1 | -0.188 °C
FC(F)(F)Oc1ccc(-c2ccc3nnc(C(F)(F)F)n3c2)cc1 | 0.0357 °C
NC(=O)N1c2ccccc2CC(=O)c2ccccc21 [Oxcarbazepine] | 0.238 °C
NC1=NCC2c3ccccc3Cc3ccccc3N12 (configuration not stated) [Epinastine HCl] | -0.133 °C
COc1cc2ncnc(Nc3cccc(I)c3)c2cc1OC | 0.158 °C
Cc1nc2ccc(NC(=O)Nc3ccnc4cccnc34)cc2o1 | 0.123 °C
Oc1nc(-c2ccc(C(F)(F)F)cc2)nc2c1CSCC2 | 0.0812 °C
CC(C)Cn1cnc2c(N)nc3ccccc3c21 [Imiquimod] | 0.0667 °C
Cn1ncc2c1-c1c(Oc3ccc(OCc4ccc5ccccc5n4)cc3)sc(C(N)=O)c1CC2 | -0.297 °C
c1cc(CN2CCCNCCNCCCNCC2)ccc1CN1CCCNCCNCCCNCC1 [AMD 3100 octahydrochloride] | -0.0669 °C
c1cc(CN2CCCNCCNCCCNCC2)ccc1CN1CCCNCCNCCCNCC1 [Plerixafor] | 0.156 °C
CC(C)NC(=N)NC(=N)Nc1ccc(Cl)cc1 [Proguanil hydrochloride] | -0.0323 °C
CC(C)n1cnc2c(NCCc3ccc(O)cc3)nc(-c3csc4ccccc34)nc21 [StemRegenin 1 (SR1)] | 0.6 °C
O=C(NNc1ccccc1)c1ccncc1 | 0.137 °C
CCNC(=O)c1cc2c(-c3cc(OCCN4CCCC4)c(Cl)cc3Cl)nc(N)nc2s1 | 0.29 °C
Cc1nc2c(O)cccc2c(=O)[nH]1 | -0.157 °C
Cc1cc(F)c(Nc2ncnc3cc(OCc4ccccc4)ccc23)cc1O | -0.12 °C
CCCC(=O)O[C@]1(C(=O)CO)CC[C@H]2[C@@H]3CCC4=CC(=O)CC[C@]4(C)[C@H]3[C@@H](O)C[C@@]21C [Hydrocortisone butyrate] | 0.0832 °C
